For orientation: AC50 means the midpoint of the concentration-response curve, whichever way the signal moves.

The record followed here is PubChem BioAssay AID662 (National Center for Advancing Translational Sciences (NCATS), 2007).

Each structure is given as a SMILES string. “And” between values parts separate entries of the source, which are not always exact repeats. Equal values may be shown once. The list shows a part of the results. Shown are side measurements of this screen, not its main read-out; they come without a call. Compounds called inactive in the main read-out are mostly missing here. Words in brackets tell the shape of the fitted curve; partial curves, single points and poor fits give uncertain potencies.

The test is described as follows: Cell signaling CRE-BLA (Fsk stim). The note with it: CHO CRE-bla reporter (cAMP response element driving beta-lactamase), forskolin EC10, beta-lactamase ratio; measured here: 460 nm blue channel. In outline: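 Using CellSensor CRE-bla CHO cells in Opti-MEM with 0.5% dialyzed FBS, compounds were titrated with EC10 NKH 477 for 3 h at 37 °C. CCF4 ratio (460/530 nm) gave %Activity; AC50 derived.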
Turning to `CCCn1c(SCCc2ccccc2)nc2c1c(=O)[nH]c(=O)n2C`, the half-maximal activity concentration (AC50) was 10 µM [rising, partial curve].

Turning to `Cc1cc(NC(=O)CN2CC3CC(C2)c2cccc(=O)n2C3)nc2c1c(=O)oc1ccccc12` (stereo not drawn), the half-maximal activity concentration (AC50) is 12.6 µM [rising, single point].

For the compound `Cc1cc(C(=O)O)ccc1[C@H](N)C(=O)O`, the concentration at half-maximal activity (AC50) is 1.26 µM [falling, full curve].

`Cc1ccc(S(=O)(=O)c2c(C)nn(C(C)(C)C)c2OC(=O)c2ccc(Br)o2)cc1`: the half-maximal activity concentration (AC50) was 3.98 µM [falling, full curve].

Consider `COc1ccc(CCNC(=O)c2ccn[nH]2)cc1OC`, for which the AC50 is 10 µM [rising, partial curve].

With `CC1CC(C)CN(C(=O)CSc2nnc(-c3ccc(Cl)s3)o2)C1` (stereo not drawn), the AC50 was 10 µM [rising, single point].

As to `COc1ccccc1N1CCN(C(=O)C2c3ccccc3Oc3ccccc32)CC1`, the half-maximal activity concentration (AC50) is 12.6 µM [rising, partial curve].

In the case of `O=c1c(-c2cccs2)nc2cncnc2n1Cc1ccc(F)cc1`, the AC50 is 0.631 µM [rising, single point].

For `O=C(c1c(Cl)nc2sccn12)N1CCN(c2cccc(Cl)c2)CC1`, the AC50 was 20 µM [rising, single point].

On to `Cc1cc(C)nc(-n2nc(C)cc2NC(=O)CN2CCC(C)CC2)n1`, for which the AC50 is 10 µM [rising, partial curve].

In the case of `O=C(Cn1nnc(-c2ccccc2NC(=O)c2ccco2)n1)Nc1ccccc1`, the half-maximal activity concentration (AC50) is 12.6 µM [rising, partial curve].

`O=C(CCS(=O)(=O)c1cccc2nonc12)N1CCOCC1`: the AC50 is 0.0158 µM [falling, full curve].

Regarding `COc1ccc(-c2cc(C(F)(F)F)nc(NCc3ccco3)n2)cc1OC`, the AC50 was 1.58 µM [rising, full curve].

For `O=C(Nc1ccc(S(=O)(=O)NCc2ccco2)cc1)c1ccc2ccccc2n1`, the AC50 is 0.0794 µM [falling, full curve, poor fit].

For the compound `CCOC(=O)c1[nH]c(CSc2nnc(-c3ccncc3)n2CCOC)c(C(=O)OCC)c1C`, the half-maximal activity concentration (AC50) was 15.8 µM [rising, single point].

As to `Cc1sc2ncnc(Sc3nnnn3-c3ccc(Cl)cc3)c2c1C`, the concentration at half-maximal activity (AC50) was 3.98 µM [falling, full curve].

Take `CCOC(=O)C1CCN(c2ncnc3nc[nH]c23)CC1`: the half-maximal activity concentration (AC50) is 5.01 µM [rising, single point].

Turning to `CN1CCC(=C2c3ccccc3C=Cc3ccccc32)CC1`, the concentration at half-maximal activity (AC50) was 31.6 µM [falling, single point].

Turning to `CCCc1cc(=O)[nH]c(Nc2cc(OC)ccc2OC)n1`, the half-maximal activity concentration (AC50) was 20 µM [rising, single point].

As to `O=C(O)CCSCC(=O)Nc1c(C(=O)C2CC2)oc2ccccc12`, the concentration at half-maximal activity (AC50) was 12.6 µM [rising, partial curve, poor fit].

Regarding `CCCNC[C@H](O)COc1ccccc1C(=O)CCc1ccccc1`, the AC50 is 12.6 µM [falling, single point].

Consider `CN(C)C(CNC(=O)CCCc1c[nH]c2ccccc12)c1ccco1` (stereo not drawn), for which the AC50 is 0.00316 µM [falling, full curve, poor fit].

On to `N#Cc1c(-c2ccccc2)no[n+]1[O-]`, for which the concentration at half-maximal activity (AC50) was 15.8 µM [falling, partial curve].

Consider `COc1ccc(C2NCCc3cc(OC)c(OC)cc32)cc1OC` (stereo not drawn), for which the AC50 is 12.6 µM [rising, partial curve].

For `Cn1cc(S(=O)(=O)NCc2cccs2)c(=O)n(C)c1=O`, the half-maximal activity concentration (AC50) was 12.6 µM [rising, partial curve].

For `CCNc1ncc2nc(-c3ccc(OC)cc3)c(=O)n(C[C@H]3CCCO3)c2n1`, the concentration at half-maximal activity (AC50) is 3.98 µM [rising, partial curve].

On to `CCn1c(=O)c2[nH]c(-c3ccccc3)nc2n(CC)c1=O`, for which the AC50 was 5.01 µM [rising, partial curve].

Consider `COC(=O)C(CCSC)NC(=O)CNC(=O)C1CCCCC1` (stereo not drawn), for which the AC50 was 0.316 µM [falling, single point].

As for `COc1ccc(CCC(=O)N2CCN(C3CCCCC3)CC2)cc1`, the half-maximal activity concentration (AC50) was 0.00631 µM [falling, full curve, poor fit].

As to `Cc1cc(NC(=O)CSc2nnc(-c3ccc(Cl)s3)o2)no1`, the half-maximal activity concentration (AC50) is 0.2 µM [falling, partial curve].

Turning to `CN1CCN(c2ncc3nc(-c4cccs4)c(=O)n(C[C@H]4CCCO4)c3n2)CC1`, the concentration at half-maximal activity (AC50) is 10 µM [rising, partial curve].

Regarding `CCc1c2c(nc3cccc(C(C)C)c13)-c1cccc(=O)n1C2`, the half-maximal activity concentration (AC50) was 10 µM [rising, partial curve].

`CCCCCn1c(CN2CCN(c3cc(Cl)ccc3C)CC2)nc2c1c(=O)[nH]c(=O)n2C`: the AC50 is 6.31 µM [rising, partial curve].

For `CCOc1ccc(-c2nc(C#N)c(NCc3ccc4c(c3)OCO4)o2)cc1`, the AC50 is 7.94 µM [rising, partial curve].

`COc1cc(=O)n(C)c2cc(N(C)C)ccc12`: the half-maximal activity concentration (AC50) is 15.8 µM [rising, single point].

For the compound `CCOc1cc2[nH]c(=O)n(CC3CCC(C(=O)NC(C)CC)CC3)c(=O)c2cc1OCC` (stereo not drawn), the AC50 is 0.794 µM [rising, full curve].

Consider `COc1ccc(-n2c(=O)c(-c3ccccc3)nc3cnc(N4CCNCC4)nc32)cc1`, for which the half-maximal activity concentration (AC50) was 10 µM [rising, partial curve].

Consider `O=S(=O)(c1cccc(F)c1)N1CCN(Cc2ccc3c(c2)OCO3)CC1`, for which the AC50 was 15.8 µM [rising, single point].

For the compound `CC(=O)Nc1cccc2c1C(=O)NC2=O`, the AC50 is 0.1 µM [falling, full curve, poor fit].

Take `COc1ccc(-c2nc3cnc(N4CCOCC4)nc3n(-c3ccccc3)c2=O)cc1`: the AC50 was 0.398 µM [rising, full curve].

As to `Cc1onc(-c2ccccc2Cl)c1C(=O)NCCN1Cc2ccccc2C1=O`, the concentration at half-maximal activity (AC50) was 0.00794 µM [falling, full curve].

As to `CS(=O)(=O)Nc1cccc(-c2ccc3ncnc(Nc4ccc(F)cc4)c3c2)c1`, the concentration at half-maximal activity (AC50) was 12.6 µM [rising, partial curve].

On to `COc1ccccc1-c1nc(NCc2cccs2)c2ccccc2n1`, for which the AC50 is 12.6 µM [rising, partial curve].

Take `COc1ccc(-n2c(SCC#N)nc3ccccc3c2=O)cc1`: the AC50 was 10 µM [rising, single point].

As to `COc1ccccc1S(=O)(=O)n1cc(Cc2ccccc2)c(N)n1`, the AC50 was 0.631 µM [rising, single point].

With `CCCC1=C(C(=O)OCC)C(c2cc(Cl)cc(OC)c2OCC(=O)OCC)NC(=O)N1` (stereo not drawn), the AC50 is 10 µM [rising, single point].

As to `Cc1cc(C2=CC(C)(c3cc(C)oc3C)Nc3nc(C(F)(F)F)nn32)c(C)o1` (stereo not drawn), the AC50 was 20 µM [falling, single point].

Turning to `c1ccc(-c2nc(-n3ccnc3)nc(-n3ccnc3)n2)cc1`, the AC50 is 1.58 µM [rising, partial curve].

For `O=C(Nc1cccc(F)c1)N1CC2(CCN(C(=O)c3cnccn3)CC2)C1`, the AC50 was 10 µM [falling, single point].

Turning to `CCOC(=O)Cn1c(=NC(=O)CSC(C)=O)sc2cc(OC)ccc21`, the concentration at half-maximal activity (AC50) is 0.501 µM [falling, full curve].

On to `Cc1cc(-c2ccccc2)nc2[n+]1CCN2C`, for which the AC50 is 5.01 µM [falling, single point].

For the compound `OC1(c2cccc(C(F)(F)F)c2)CCN(c2ncnc3c2[nH]c2ccc(F)cc23)CC1`, the half-maximal activity concentration (AC50) was 25.1 µM [falling, single point].

As to `CC1(C)CC(=O)C(C=Nc2ccc(O)cc2)=C(O)C1`, the AC50 is 0.2 µM [falling, full curve].

On to `Cc1cccc(-c2nnc(SCc3nc4ccccc4[nH]3)n2Cc2ccco2)c1`, for which the AC50 was 10 µM [rising, partial curve].

Consider `C=CCn1c(NC(=O)c2ccccc2Cl)c(C#N)c2nc3ccccc3nc21`, for which the half-maximal activity concentration (AC50) is 5.01 µM [rising, partial curve].

Turning to `Oc1c(C(c2cccs2)N2CCN(c3cccc(Cl)c3)CC2)sc2ncnn12` (stereo not drawn), the concentration at half-maximal activity (AC50) was 12.6 µM [rising, partial curve].

Regarding `Cc1cc(NC(=O)CSc2nc(-c3cccs3)cc(C(F)(F)F)n2)no1`, the concentration at half-maximal activity (AC50) was 3.16 µM [rising, full curve].

With `CCC(C)(C(=O)NC1CCCC1)N(Cc1ccco1)C(=O)c1ccccn1` (stereo not drawn), the AC50 is 12.6 µM [falling, partial curve, poor fit].

`Oc1ccc(/C=C\c2cc(O)cc(O)c2)cc1`: the AC50 was 15.8 µM [falling, partial curve, poor fit] and 15.8 µM [falling, partial curve].

As for `CCOc1ccccc1-c1nc(-c2cc3ccccc3nc2OC)no1`, the concentration at half-maximal activity (AC50) is 10 µM [rising, partial curve].

For `COc1ccccc1CNc1ncnc2ccc(-c3cccc(NS(C)(=O)=O)c3)cc12`, the AC50 is 10 µM [rising, partial curve].

Consider `COc1cccc(-c2nc(NCCNC(C)=O)c3ccccc3n2)c1`, for which the AC50 is 15.8 µM [rising, partial curve].

Take `CCOC(=O)c1cc2c(=O)n3ccccc3nc2n(CCOC)c1=NC(=O)C(C)(C)C`: the AC50 is 10 µM [rising, partial curve].

As to `CCOC(=O)c1sc(NC(=O)CCSC)nc1C`, the AC50 is 12.6 µM [rising, partial curve].

Turning to `CCOC(=O)c1c(CC(C)C)csc1NC(C)=O`, the AC50 is 15.8 µM [rising, single point].

Take `Cc1nn(Cc2ccc(C(=O)Nc3ccc(C(=O)OC(C)C)cc3)o2)c(C)c1Cl`: the AC50 was 2.51 µM [rising, full curve].

`N#Cc1cc(Sc2ccccn2)c(Sc2ccccn2)cc1C#N`: the concentration at half-maximal activity (AC50) was 0.794 µM [rising, single point].

For the compound `c1cncc(-c2cc(-n3ccnc3)ncn2)c1`, the AC50 is 12.6 µM [rising, single point].
